The values below are quoted from earlier work in paper PMC12181400, “Leveraging viral genome sequences and machine learning models for identification of potentially selective antiviral agents” (Communications Chemistry, 2025).

The data set concerns cell viability (tox21-ar-mda-kb2-luc-antagonist-p2). To be noted: cited from earlier work.

Each structure is given as a SMILES string.

In the case of `NS(=O)(=O)c1cc(C(=O)O)c(NCc2ccco2)cc1Cl` [Furosemide], the “tox21-ar-mda-kb2-luc-antagonist-p2-viability (curve rank)” value is given as 0.
